Measurements reported in patent publication US20240150333A1, “TAF1 INHIBITORS” (H. LEE MOFFITT CANCER CENTER AND RESEARCH INSTITUTE, INC., priority 2020, published 2024).
At least one compound was matched to its structure with a doubt left.

Target: T1, TAF1-2 (TAF1 BD2) (Homo sapiens, UniProt P21675)
T1 construct: BD2 (residues 1501-1635); His6 (TEV-cleavable) (cleaved yes); host or cells: E. coli BL21 (DE3)
T1 sequence (P21675 1501-1635 isoform P21675-1): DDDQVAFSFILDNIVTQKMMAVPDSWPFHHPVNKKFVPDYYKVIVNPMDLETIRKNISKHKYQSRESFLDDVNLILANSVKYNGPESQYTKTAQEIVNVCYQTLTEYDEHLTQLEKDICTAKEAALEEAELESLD
Assay: Isothermal titration calorimetry (ITC)
Assay type: binding
Details: Table 3; 288.15 K

Question: How did the “ITC ΔG, TAF1-2” value turn out when CCOC(=O)Nc1cc(-c2ccc(C)c(NS(C)(=O)=O)c2)nn2c(C)nnc12 [Bromosporine] was run?
Answer: -9.60 kcal/mol
